The text below walks through data of patent publication US20050209345A1, “Lymphatic drug delivery system” (priority 2001, published 2005).

A short description of the data set: Thoracic lymph duct and portal vein cannulated greyhound dog study: lymphatic transport of halofantrine and triglyceride, systemic availability. The conditions noted are these: mean +/- sd.

Consider `CCCCN(CCCC)CCC(O)c1cc2c(Cl)cc(Cl)cc2c2cc(C(F)(F)F)ccc12.Cl` (stereo not shown) [Hf HCl], for which the “Cum TG transport in lymph” value (fed dogs, 107 mg Hf HCl, over 12 h, n = 3) came out at 32.5 ± 6.7 g. On to `CCCCN(CCCC)CCC(O)c1cc2c(Cl)cc(Cl)cc2c2cc(C(F)(F)F)ccc12` (stereo not shown) [Hf base], for which the “Cum TG transport in lymph” value was 0.7 ± 0.5 g (fasted dogs, oral 100 mg amorphous PEG 6000 solid dispersion, 0-10 h, n = 3) and 33.8 ± 3.6 g (fed dogs, oral 100 mg amorphous PEG 6000 solid dispersion, over 12 h, n = 4). For `CCCCN(CCCC)CCC(O)c1cc2c(Cl)cc(Cl)cc2c2cc(C(F)(F)F)ccc12` (stereo not shown) [Hf, halofantrine], the “Cum TG transport in lymph” value (fed dogs, IV 2 mg/kg, over 12 h, n = 3) was 29.0 ± 4.4 g.
